Test results reported in publication doi:10.1101/2022.05.13.491370.
Results are given in words; binding and its absence hold for the method and conditions named. Binding seen in cells or lysates may run through a third protein. Some entries that bind do so weakly or less than the wild type.

The chains behind the UniProt entries cited, without tags or fusion partners. Residues count along the entry.
UniProt Q8BWG9: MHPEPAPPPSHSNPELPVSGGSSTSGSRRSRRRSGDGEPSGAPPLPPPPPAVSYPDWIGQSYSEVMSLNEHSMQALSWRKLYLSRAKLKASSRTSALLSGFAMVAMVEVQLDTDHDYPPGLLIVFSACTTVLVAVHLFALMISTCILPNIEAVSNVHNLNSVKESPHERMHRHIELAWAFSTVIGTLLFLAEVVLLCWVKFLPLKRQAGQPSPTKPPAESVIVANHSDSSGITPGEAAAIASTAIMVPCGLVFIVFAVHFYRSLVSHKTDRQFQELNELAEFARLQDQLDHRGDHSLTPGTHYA
UniProt P70302, residues 23-685: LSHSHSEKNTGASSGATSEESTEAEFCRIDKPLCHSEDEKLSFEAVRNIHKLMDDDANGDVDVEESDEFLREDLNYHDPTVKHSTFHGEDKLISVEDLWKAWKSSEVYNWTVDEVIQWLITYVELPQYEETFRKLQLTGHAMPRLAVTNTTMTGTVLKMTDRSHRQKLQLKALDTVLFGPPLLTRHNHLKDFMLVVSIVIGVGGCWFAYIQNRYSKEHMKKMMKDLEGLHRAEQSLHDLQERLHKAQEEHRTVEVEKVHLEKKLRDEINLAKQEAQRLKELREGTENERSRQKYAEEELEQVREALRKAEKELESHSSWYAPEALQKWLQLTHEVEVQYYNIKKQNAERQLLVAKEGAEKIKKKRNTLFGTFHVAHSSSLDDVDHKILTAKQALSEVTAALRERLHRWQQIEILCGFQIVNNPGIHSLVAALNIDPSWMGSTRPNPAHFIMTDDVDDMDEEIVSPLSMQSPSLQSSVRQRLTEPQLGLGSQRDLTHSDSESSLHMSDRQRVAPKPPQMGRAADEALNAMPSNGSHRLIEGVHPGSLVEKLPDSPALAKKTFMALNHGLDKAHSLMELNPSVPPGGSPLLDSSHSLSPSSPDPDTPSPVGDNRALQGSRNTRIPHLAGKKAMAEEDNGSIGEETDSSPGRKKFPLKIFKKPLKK

Target: YFP-Orai1 (mouse) (UniProt Q8BWG9)
Assay: FRET or BRET

binding: binds
Substance: STIM1-CFP (Stromal interaction molecule 1 fused to CFP) (from UniProt P70302 23-685)
